Measured values as given in patent US20090169546A1.
These are yes or no findings as the source states them, for the method shown. Some results given as binding are weak or reduced against the parent protein; the word gives no strength.

The chains behind the UniProt entries cited, without tags or fusion partners. Residues count along the entry.
UniProt Q62151, residues 24-342: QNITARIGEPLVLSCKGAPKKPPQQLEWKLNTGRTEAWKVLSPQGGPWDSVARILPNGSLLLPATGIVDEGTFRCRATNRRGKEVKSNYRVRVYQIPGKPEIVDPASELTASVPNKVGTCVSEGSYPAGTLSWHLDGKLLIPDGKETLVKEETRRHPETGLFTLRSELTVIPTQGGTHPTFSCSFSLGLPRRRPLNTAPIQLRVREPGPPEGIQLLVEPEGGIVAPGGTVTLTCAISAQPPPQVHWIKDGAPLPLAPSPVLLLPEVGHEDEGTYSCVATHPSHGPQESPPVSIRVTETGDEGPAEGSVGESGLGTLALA
UniProt P10103, residues 2-215: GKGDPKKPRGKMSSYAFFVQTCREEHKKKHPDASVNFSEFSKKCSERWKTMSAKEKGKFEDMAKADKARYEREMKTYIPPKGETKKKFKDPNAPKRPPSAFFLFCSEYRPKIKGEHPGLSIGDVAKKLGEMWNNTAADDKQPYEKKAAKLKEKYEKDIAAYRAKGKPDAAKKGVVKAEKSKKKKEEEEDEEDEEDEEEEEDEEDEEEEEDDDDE

Experiments:
[1] = molecular target: Mouse RAGE/Fc (mouse) (UniProt Q62151); experiment: ELISA on coated RAGE/Fc
[2] = molecular target: Mouse RAGE/Fc (mouse) (UniProt Q62151); experiment: ELISA on coated RAGE/Fc; HMGB1 in complex with biotin labeled CpG
[3] = molecular target: Mouse RAGE/Fc (mouse) (UniProt Q62151); experiment: ELISA on coated RAGE/Fc, HMGB1 alone or in complex with CpG-A, FIG. 35

Measured: binding

HMG1 purified from calf (bovine) thymus (from UniProt P10103 2-215) (ligand)
binds: all assays above
